Consider one compound from patent publication EP4775208A1, “USE OF PRMT5 INHIBITOR IN TREATMENT OF TUMORS OR CANCERS” (Apeiron Therapeutics (Hong Kong) Ltd., priority 2023, dated 2025).

In this test the test system is NCI-H838 MTAP(-/-) cells. Description: Inhibition of proliferation of NCI-H838 MTAP(-/-) cells (CellTiter-Glo). The settings on record: Homo sapiens, NCI-H838, 144 h, read-out: IC50(nM) NCI-H838 MTAP(-/-). (In general: ATP-based viability assays read luminescence as a measure of living cells.)

Structures are written as SMILES.

Turning to `CN[C@@H]1C[C@H]2O[C@@](C)([C@@H]1OC)n1c3ccccc3c3c4c(c5c6ccccc6n2c5c31)C(=O)NC4` [Staurosporine, reference compound], the IC50 was 0.8 nM.
